# Measurements reported in PubChem BioAssay AID1259308 (NCATS, 2017)
# Test: 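Genes whose loss raises luciferase production in HEK293 cells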 (primary screen)
# System: human HEK293 embryonic kidney cells stably expressing firefly luciferase (HEK-CMV-Luc2-Hygro)
# Reagent: single siRNA against human genes, 0.8 pmol siRNA per well
# Time to read-out: 72 h
# Measured: 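Reporter luminescence and viable-cell signal on separate replicate plates, given as percent of non-targeting control and median/MAD z-scores, plus per-cell luciferase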
# Direction: total luciferase, z-score and total luciferase, % of control: higher = more reporter protein produced; luciferase per cell, z-score: higher = more reporter output per viable cell; viable cells, % of control: higher = more viable cells
# Rule for the call: 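Active when the median/MAD z-score for overall luciferase is greater than 3; a gene was taken forward for validation with new siRNAs if at least two of its three siRNAs passed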
# Calls: active = raised luciferase; inactive = no rise
# This is a random part of about 59,000 reagents. About 1,510 of all reagents (2.6%) count as active. 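Calls use total luciferase alone and ignore viability, so some active siRNAs may act by altering cell number.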 A number with no mark means an inactive call. Reagents against one gene are numbered here.
The opening 2 entries as a preview:
target gene,reagent,"total luciferase, z-score","total luciferase, % of control","luciferase per cell, z-score","viable cells, % of control"
C6orf132 (GeneID 647024),1,-0.477,72.4,-0.315,87.9
C6orf132 (GeneID 647024),2,-0.0925,80,-0.39,99.1

The list itself, repeating the preview:
target gene,reagent,"total luciferase, z-score","total luciferase, % of control","luciferase per cell, z-score","viable cells, % of control"
C6orf132 (GeneID 647024),1,-0.477,72.4,-0.315,87.9
C6orf132 (GeneID 647024),2,-0.0925,80,-0.39,99.1
C6orf132 (GeneID 647024),3,2.88,139,2.48,81
C6orf132 (GeneID 647024),4,-0.0881,80.1,0.0655,88
C6orf132 (GeneID 647024),5,-0.507,71.8,0.264,74.9
C6orf132 (GeneID 647024),6,-1.75,47.1,0.189,50.1
SRRM3 (GeneID 222183),1,-0.0344,81.2,-0.498,103
SRRM3 (GeneID 222183),2,-0.0781,80.3,-0.22,95.1
SRRM3 (GeneID 222183),3,0.0791,83.5,0.725,77
TESC (GeneID 54997),1,-1.68,48.4,-1.44,79.1
TESC (GeneID 54997),2,0.0584,83,0.913,73
TESC (GeneID 54997),3,-0.111,79.7,0.00997,88.8
TRMT10C (GeneID 54931),1,1.56,113,0.717,104
TRMT10C (GeneID 54931),2,-0.0248,81.4,0.327,83.4
TRMT10C (GeneID 54931),3,0.923,100,-0.0407,113
RERE (GeneID 473),1,-1.45,52.9,-1.48,87.3
RERE (GeneID 473),2,0.541,92.6,0.182,98.7
RERE (GeneID 473),3,-0.411,73.7,-0.594,96.3
COL6A6 (GeneID 131873),1,-0.653,68.9,-0.765,94.2
COL6A6 (GeneID 131873),2,-1.52,51.6,-2.06,99.2
COL6A6 (GeneID 131873),3,0.868,99.1,-0.0122,111
KLHDC8A (GeneID 55220),1,3.19 (active),145,3.04,72.9
KLHDC8A (GeneID 55220),2,0.748,96.8,0.682,90.4
KLHDC8A (GeneID 55220),3,-2.24,37.2,-2.4,78.3
ODAD2 (GeneID 55130),1,-0.522,71.5,-0.553,92.4
ODAD2 (GeneID 55130),2,-0.475,72.4,-0.791,99.7
ODAD2 (GeneID 55130),3,-0.654,68.9,-0.559,89.2
ZNF583 (GeneID 147949),1,-0.0745,80.4,-0.663,107
ZNF583 (GeneID 147949),2,-0.144,79,-0.189,92.8
ZNF583 (GeneID 147949),3,-0.226,77.4,-0.596,101
TRAM2 (GeneID 9697),1,-1.66,48.9,-1.41,79.2
TRAM2 (GeneID 9697),2,0.809,98,2.68,54.1
TRAM2 (GeneID 9697),3,-1.74,47.2,-0.845,65.9
ZNF44 (GeneID 51710),1,2.33,128,1.5,96.6
ZNF44 (GeneID 51710),2,-0.419,73.6,0.424,73.5
ZNF44 (GeneID 51710),3,0.928,100,0.287,104
GTF2F2 (GeneID 2963),1,0.276,87.4,-0.451,110
GTF2F2 (GeneID 2963),2,-0.558,70.8,-1.2,108
GTF2F2 (GeneID 2963),3,0.172,85.3,-0.131,98.7
PDIA2 (GeneID 64714),1,0.122,84.3,-0.331,103
PDIA2 (GeneID 64714),2,-0.695,68.1,-1.25,106
PDIA2 (GeneID 64714),3,0.488,91.6,0.727,84.5
AVEN (GeneID 57099),1,1.2,106,0.935,92.3
AVEN (GeneID 57099),2,-0.162,78.7,-0.9,111
AVEN (GeneID 57099),3,0.0747,83.4,-0.733,113
CLCA4 (GeneID 22802),1,1.08,103,0.766,94.4
CLCA4 (GeneID 22802),2,-1.13,59.4,-1.04,87.3
CLCA4 (GeneID 22802),3,-0.0493,80.9,-1.1,121
EIF2S1 (GeneID 1965),1,-1.96,42.9,-1.05,63.2
EIF2S1 (GeneID 1965),2,-2.55,31.1,-2.85,73.7
EIF2S1 (GeneID 1965),3,-3.04,21.4,-3.61,62
UST (GeneID 10090),1,-0.89,64.2,-0.399,79.7
UST (GeneID 10090),2,1.16,105,1.46,79.8
UST (GeneID 10090),3,0.277,87.4,-0.131,101
GK5 (GeneID 256356),1,-0.625,69.5,-0.545,89.6
GK5 (GeneID 256356),2,0.346,88.8,0.267,92.5
GK5 (GeneID 256356),3,-0.0623,80.6,0.148,86.7
